Results are given in words; binding and its absence hold for the method and conditions named. Some results given as binding are weak or reduced against the parent protein; the word gives no strength.
Columns and labels:
[1] = target: myosin 18Aβ (190 kDa short isoform of myosin 18A) (human) (UniProt Q92614); assay: immunoprecipitation of YT2C2 cell lysates, immunoblot with polyclonal anti-myosin 18A
[2] = target: myosin 18Aβ (190 kDa short isoform of myosin 18A) (human) (UniProt Q92614); assay: immunoprecipitation of PBMC lysates, immunoblot with polyclonal anti-myosin 18A
[3] = target: myosin 18Aβ (190 kDa short isoform of myosin 18A) (human) (UniProt Q92614); assay: immunoprecipitation of human lung lysates, immunoblot with polyclonal anti-myosin 18A

By UniProt entry, the sequences of proteins in these tests, tags left out. Where a name states a change or a piece, a line headed by the entry shows the natural chain unless it says otherwise. Chains listed by the source or under a name are the forms on record and can include a tag or linker.
myosin 18Aβ (190 kDa short isoform of myosin 18A) (Q92614, form named): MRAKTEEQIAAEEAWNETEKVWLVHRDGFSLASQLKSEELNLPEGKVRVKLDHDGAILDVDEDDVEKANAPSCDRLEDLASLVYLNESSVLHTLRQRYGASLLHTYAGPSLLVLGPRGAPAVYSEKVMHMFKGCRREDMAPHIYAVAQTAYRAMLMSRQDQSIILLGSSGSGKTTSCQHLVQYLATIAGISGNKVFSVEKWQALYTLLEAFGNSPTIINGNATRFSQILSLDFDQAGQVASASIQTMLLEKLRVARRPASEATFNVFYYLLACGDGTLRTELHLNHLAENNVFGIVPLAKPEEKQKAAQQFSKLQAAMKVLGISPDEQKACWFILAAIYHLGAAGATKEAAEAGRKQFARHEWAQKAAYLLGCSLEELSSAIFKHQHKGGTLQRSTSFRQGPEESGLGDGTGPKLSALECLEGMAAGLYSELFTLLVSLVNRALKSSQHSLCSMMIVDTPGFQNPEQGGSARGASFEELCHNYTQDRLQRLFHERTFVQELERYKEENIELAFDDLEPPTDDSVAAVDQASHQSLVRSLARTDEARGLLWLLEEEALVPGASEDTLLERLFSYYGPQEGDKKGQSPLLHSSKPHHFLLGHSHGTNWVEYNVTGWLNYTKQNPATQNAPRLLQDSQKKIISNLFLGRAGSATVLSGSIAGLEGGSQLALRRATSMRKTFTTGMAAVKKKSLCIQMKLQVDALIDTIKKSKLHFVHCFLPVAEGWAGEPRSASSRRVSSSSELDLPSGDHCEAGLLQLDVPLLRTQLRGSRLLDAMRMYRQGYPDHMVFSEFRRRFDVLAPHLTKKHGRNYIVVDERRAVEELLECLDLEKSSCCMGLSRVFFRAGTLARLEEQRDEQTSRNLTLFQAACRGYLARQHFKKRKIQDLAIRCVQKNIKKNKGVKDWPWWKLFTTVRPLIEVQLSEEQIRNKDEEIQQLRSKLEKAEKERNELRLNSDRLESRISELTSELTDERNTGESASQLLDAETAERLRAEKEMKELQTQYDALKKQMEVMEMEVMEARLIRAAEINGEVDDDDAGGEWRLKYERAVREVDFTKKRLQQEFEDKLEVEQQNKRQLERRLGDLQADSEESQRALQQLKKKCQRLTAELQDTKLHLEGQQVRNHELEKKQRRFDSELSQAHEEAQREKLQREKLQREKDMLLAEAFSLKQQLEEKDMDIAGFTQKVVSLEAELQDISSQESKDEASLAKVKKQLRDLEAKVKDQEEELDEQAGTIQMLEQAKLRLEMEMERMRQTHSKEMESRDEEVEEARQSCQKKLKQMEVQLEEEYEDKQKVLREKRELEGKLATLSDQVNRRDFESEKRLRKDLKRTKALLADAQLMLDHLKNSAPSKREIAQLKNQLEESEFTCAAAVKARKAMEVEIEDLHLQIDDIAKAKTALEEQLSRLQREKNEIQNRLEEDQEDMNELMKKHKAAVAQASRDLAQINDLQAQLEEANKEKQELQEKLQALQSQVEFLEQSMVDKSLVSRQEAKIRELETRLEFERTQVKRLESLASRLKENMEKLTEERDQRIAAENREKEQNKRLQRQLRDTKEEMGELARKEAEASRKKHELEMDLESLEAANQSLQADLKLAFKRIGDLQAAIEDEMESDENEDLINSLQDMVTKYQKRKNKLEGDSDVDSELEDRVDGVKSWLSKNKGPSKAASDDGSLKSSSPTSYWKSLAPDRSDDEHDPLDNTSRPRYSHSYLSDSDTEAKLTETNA

Measured: binding

B1: DY12 monoclonal antibody (anti-CD245 mAb) (antibody, V domains shown)
VH: QVQLQQPGAELVRPGASVMLSCKASGYTFTNYWINWVRQRPGQGLEWIGNIYPSDSYTNYNQKFKDKATLTVDNSSSTAYMQFSSPTSEDSAVYFCTRLTTVGAGAMDYWGQGTSVTVSS
VL: DIQMTQSSSYLSVSLGGRVTITCKASDHINNWLAWYQQKPGNAPRLLISGATSLETGVPSRFSGSGSGKDYTLSIFSLQSEDVATYYCQQYWSTPFTFGSGTKLEIK
binds: [1] | [2] | [3]
